Data reported in patent US11395847B2, “Acylated GLP-1/GLP-2 dual agonists” (Zealand Pharma A/S, priority 2016, dated 2022).
Not every detail of the peptide structures is certain; ends, links or a residue may be inferred. Where a SMILES comes first, the peptide text is derived from it.

Tested on: Normal chow-fed C57BL/6J male mice
Assay: Effect on fasting glucose and intestinal weight in normal mice
Format: in vivo
Experimental: Normal chow-fed C57BL/6J male mice were used. The mice were kept in standard housing conditions, light-, temperature-, and humidity-controlled room (12:12 h light-dark cycle, with lights on at 06.00-18.00 h; 20-22° C.; 50-80% relative humidity). Each dosing group consisted of 6 animals. Mice were dosed once daily with 100 nmol/kg with the test compounds or vehicle for 4 days via subcutaneous administration.
On day 0 mice were fasted and blood glucose levels measured after a single s.c. injection with peptides. Animals were sacrificed 24 hours after final dosing on day 3, and small intestinal wet weights were measured.

Structure (SMILES): CC[C@H](C)[C@H](NC(=O)[C@H](Cc1ccccc1)NC(=O)[C@H](CC(=O)O)NC(=O)[C@H](CCCNC(=N)N)NC(=O)[C@H](C)NC(=O)[C@H](C)NC(=O)[C@H](CCC(N)=O)NC(=O)[C@H](CCCCNC(=O)COCCOCCNC(=O)[C@H](CCCCN)NC(=O)[C@H](CCC(=O)O)NC(=O)[C@H](CCCCN)NC(=O)CC[C@H](NC(=O)CCCCCCCCCCCCCCCCCCC(=O)O)C(=O)O)NC(=O)[C@H](CC(=O)O)NC(=O)[C@H](CC(C)C)NC(=O)[C@@H](NC(=O)[C@@H](NC(=O)[C@H](C)NC(=O)[C@H](CC(C)C)NC(=O)[C@H](CCC(=O)O)NC(=O)[C@H](CO)NC(=O)[C@@H](NC(=O)[C@H](Cc1ccccc1)NC(=O)[C@@H](NC(=O)CNC(=O)[C@H](CCC(=O)O)NC(=O)C(C)(C)NC(=O)[C@@H](N)Cc1c[nH]cn1)[C@@H](C)O)[C@@H](C)O)[C@@H](C)O)[C@@H](C)CC)C(=O)N[C@@H](C)C(=O)N[C@@H](Cc1c[nH]c2ccccc12)C(=O)N[C@@H](CC(C)C)C(=O)N[C@H](C(=O)N[C@@H](CCC(N)=O)C(=O)N[C@@H](Cc1c[nH]cn1)C(=O)N[C@@H](CCCCN)C(=O)N[C@H](C(=O)N[C@H](C(=O)N[C@@H](CC(=O)O)C(=O)O)[C@@H](C)O)[C@@H](C)CC)[C@@H](C)CC [Compound 52] (HELM PEPTIDE1{H.[Aib].E.G.T.F.T.S.E.L.A.T.I.L.D.K.Q.A.A.R.D.F.I.A.W.L.I.Q.H.K.I.T.D}|PEPTIDE2{[O=C(O)CCCCCCCCCCCCCCCCCCC(=O)[*:2]].[gGlu].K.E.K.[O=C(COCCOCCN[*:1])[*:2]]}$PEPTIDE1,PEPTIDE2,16:R3-6:R2$$$V2.0)
- Small intestinal wet weight (100 nmol/kg s.c. once daily for 4 days, sacrificed 24 hours after final dosing): 1.09 g
- Fasting blood glucose (100 nmol/kg s.c., day 0 after a single injection, fasted mice): 4.69 mM
